Literature values in US20140314672A1, “NANOPARTICLE THERAPEUTIC AGENTS, THEIR FORMULATIONS, AND METHODS OF THEIR USE” (IGDRASOL, Inc., priority 2013, published 2014).

Settings: water

In the case of CC(=O)O[C@H]1C(=O)[C@@]2(C)[C@H]([C@H](OC(=O)c3ccccc3)[C@]3(O)C[C@H](OC(=O)[C@H](O)[C@@H](NC(=O)c4ccccc4)c4ccccc4)C(C)=C1C3(C)C)[C@]1(OC(C)=O)CO[C@@H]1C[C@@H]2O [Paclitaxel], the aqueous solubility is given as “virtually insoluble in water”.
